Measured values published in PubChem BioAssay AID1347076 (National Center for Advancing Translational Sciences (NCATS), 2019).
“And” between values parts separate entries of the source, which are not always exact repeats. Equal entries are not always repeated. About 13,000 (3.2%) of roughly 400,000 compounds were called active. Inconclusive means that the source gave no clear call. Such entries were picked first, then a sample of the others. Calls follow the shape of the dose curve; as a rule, active = well fitted cell-killing curve with a large enough effect; inconclusive = small, poorly fitted or top-dose-only effect, or effect the other way; inactive = flat fitted curve, though single readings scatter. Potencies beside an inconclusive call are fits to weak or partial responses and may not hold up.

Test: qHTS assay for MDR1-selective chemotherapeutics: Primary screen using the drug-selected MDR subline cells KB-V1; also: nearly all actives have a fitted effect of over 60% in size
Details: KB-V1 MDR cells viability, CellTiter-Glo, 72 h; activity change, negative = cytotoxicity: at 46.1 µM (top of the series)
Procedure, shortened: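 KB-V1, DMEM (no phenol red) + 10% FBS; cpd pin-transferred, titration series; 72 h, 37 degrees C; CellTiter-Glo, luminescence. Data normalized, curve-fit.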
% is scaled to controls: 0 for no effect and ±100 for the full control effect; potency is read from the fitted curve at half-maximal effect.

Row | SMILES | Potency | activity change, negative = cytotoxicity
1 | O=C(Nc1ccc(Cl)cc1)Nc1ccc(Cl)c(Cl)c1 | inconclusive: 29.1 µM [cytotoxic, single point] and active: 20.6 µM | 
2 | CC(=O)N1c2ccc(S(=O)(=O)N3CCC(C(=O)NCc4ccccc4Cl)CC3)cc2CC1C (stereo unspecified) | inactive | 
3 | COc1ccc(OC)c(-n2cnc3cc(C(=O)NC4CCCC4)ccc32)c1 | inactive | 
4 | O=[N+]([O-])c1cc(/C=N/O)ccc1N1CCCC1 | inconclusive: 20.6 µM [cytotoxic, single point] | 
5 | CN1c2ccc(Cl)cc2C(=O)NC1C1CC=CCC1 (stereo unspecified) | inconclusive: 16.4 µM [cytotoxic, single point] | 
6 | O=C(Nc1ccccc1-c1ccccc1)C(c1ccccc1)c1ccccc1 | inconclusive: 5.17 µM [cytotoxic, full curve] | 
7 | CCOc1ccc(-c2cc(C(=O)NCc3ccc(OC)cc3)c3c(-c4ccc(F)cc4)[nH]nc3n2)cc1 | inconclusive: 25.9 µM [rising, single point] | 
8 | Cc1cccc(CSC(Nc2ccc(F)cc2)=C(C#N)C#N)c1 | inconclusive: 29.1 µM [cytotoxic, partial curve, poor fit] | 
9 | CC(C)c1ccc(NC2CCCN(C(=O)CN3CCCC3=O)C2)cc1 (stereo unspecified) | inconclusive: 0.0052 µM [rising, full curve, poor fit] | 
10 | COc1ccc(C(=O)C2CCCN(Cc3cnc(N4CCOCC4)s3)C2)c(OC)c1 (stereo unspecified) | inconclusive: 4.61 µM [cytotoxic, partial curve] | 
11 | COc1ccc(NC(=O)c2cc(S(=O)(=O)N3CCc4ccccc43)cn2C)cc1 | inconclusive: 2.91 µM [cytotoxic, full curve] | 
12 | Cc1cccc(-c2nc(N3CCN(c4ccc(F)cc4)CC3)c3ccccc3n2)c1 | inactive | 
13 | Cc1nn(-c2ccccc2)c(C)c1C(=O)NCc1ccc(S(N)(=O)=O)cc1 | inactive | 
14 | Cc1ccc(NC(=O)Cn2cc(C(=O)c3cccs3)c3ccccc32)cc1C | inactive | 
15 | COc1ccc2[nH]c(=O)c3c(c2c1)OC(C)(C)C=C3 | inconclusive: 29.1 µM [cytotoxic, single point] | 
16 | CC(C)c1ccc2c(c1)C(N1CCN(C)CC1)Cc1cccnc1S2 (stereo unspecified) |  | inconclusive: -7.89%
17 | CN(C)c1ccc(C(=O)Nc2nc3c(s2)CCCC3)cc1 | inactive | 
18 | Cc1ccc(-n2c(=O)c3c(cnn3C)n(CC(=O)Nc3cc(C)ccc3C)c2=O)cc1 | inactive | 
19 | Nc1[nH]c(N=NC(=O)c2ccccc2O)c2ccccc12 | active: 20.6 µM | 
20 | O=C(Nc1ccncc1)c1ccccc1F | inactive | 
21 | CC1CCCN(C(=O)N2c3ccccc3Sc3ccccc32)C1 (stereo unspecified) | inconclusive: 18.4 µM [cytotoxic, single point] | 

Three structures out of the list, sorted by formula weight, smallest number first.
Row | SMILES | Potency | activity change, negative = cytotoxicity
15 | COc1ccc2[nH]c(=O)c3c(c2c1)OC(C)(C)C=C3 | inconclusive: 29.1 µM [cytotoxic, single point] | 
9 | CC(C)c1ccc(NC2CCCN(C(=O)CN3CCCC3=O)C2)cc1 (stereo unspecified) | inconclusive: 0.0052 µM [rising, full curve, poor fit] | 
6 | O=C(Nc1ccccc1-c1ccccc1)C(c1ccccc1)c1ccccc1 | inconclusive: 5.17 µM [cytotoxic, full curve] | 
